Data published in PMC7819943, “Rice protein-binding microarrays: a tool to detect cis-acting elements near promoter regions in rice”.
Some of the results follow.

The chains behind the UniProt entries cited, without tags or fusion partners.
UniProt Q0JBA9, entry or part of it: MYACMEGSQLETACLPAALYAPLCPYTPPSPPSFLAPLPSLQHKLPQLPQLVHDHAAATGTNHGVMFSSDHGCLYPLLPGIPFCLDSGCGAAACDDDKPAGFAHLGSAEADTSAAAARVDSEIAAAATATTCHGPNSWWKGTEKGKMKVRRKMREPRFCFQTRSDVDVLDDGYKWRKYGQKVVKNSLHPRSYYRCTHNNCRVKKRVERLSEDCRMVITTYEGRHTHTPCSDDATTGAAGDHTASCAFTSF

Biological target: OsWRKY34 (Oryza sativa, UniProt Q0JBA9 1-250)
Assay: protein-binding microarray (RPBM); PBS, 2% BSA, 51.3 ng/ul salmon testes DNA, 50 uM zinc acetate, 200 nM TF, 25 C, 1 h; high values mean tight binding
Conditions: protein: recombinant; tags: N-terminal polyhistidine and DsRed monomer fusion (pET32a); label: CyDye5-dUTP incorporated in the synthesized complementary strand; 3' TTTTT single-stranded linker to array surface; dsDNA, one strand shown
Outline: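 Binding signal here means per-feature fluorescence intensity in arbitrary units. The values were read on an Axon 4000B scanner after a custom Agilent array, double-stranded by primer extension with Cy5-dUTP, was incubated with 200 nM protein at 25 °C for 1 h in PBS with 2% BSA, salmon testes DNA and 50 µM zinc acetate, then washed. The proteins were transcription factors with an N-terminal polyhistidine tag and DsRed, expressed in E. coli BL21-CodonPlus and purified on Ni–NTA.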

Compared with “GTTAAATTTGGAGCAGATTGACTTTGACCAAAACTAAAACCGGAGTCACCTAGTGCAG”, “AATATGAGTGTGGTGTTTAGTATGTGAGCATGTGTTTGTTCGGAGTCACCTAGTGCAG” is higher in binding signal: 8140 fluorescence intensity (a.u.) for the first, 10500 fluorescence intensity (a.u.) for the second.

First: AATCCACGCTATCACCATCTCGGATTCTCGATCGAGCCACCGGAGTCACCTAGTGCAG
Second: TAAAGCCGGCCTGTATATGTTTCTCGTTTATTGATTTAGTCGGAGTCACCTAGTGCAG
The binding signal of the first is higher: 9060 fluorescence intensity (a.u.) for the first, 8780 fluorescence intensity (a.u.) for the second.

Compared with “ATGAAACTTTTTTATTCGATATCTCTGATGTCTCACCTACCGGAGTCACCTAGTGCAG”, “CCTTGTGGGTTTGCCTTGTCGCGCGTGTATGACTGGTAGACGGAGTCACCTAGTGCAG” is higher in binding signal: 8370 fluorescence intensity (a.u.) for the first, 10700 fluorescence intensity (a.u.) for the second.

Going from “CGTTCCCAGCTCCACCTCATCATCCATGGCGTCCACCGACCGGAGTCACCTAGTGCAG” to “CCTTGTGCCTCCACCACCCCAATTCGAAGCTGTTCCTGACCGGAGTCACCTAGTGCAG”, the binding signal rises from 8500 fluorescence intensity (a.u.) to 12600 fluorescence intensity (a.u.).

First: GCATCCATTCCATCCGCTTGTGAGTTGACAGCATCAAAACCGGAGTCACCTAGTGCAG
Second: TACTTCACCACTGATCTGAACATGAGATTCACATCGTTCCCGGAGTCACCTAGTGCAG
The binding signal of the first is higher: 9690 fluorescence intensity (a.u.) for the first, 8260 fluorescence intensity (a.u.) for the second.

Going from “GTTACTGCTTCTATCCATCAGTCCAGCTTAAGCTTAATTACGGAGTCACCTAGTGCAG” to “TGTTCATCAGTTCATGAGTTCATCCTTCATCGTAGCACCCCGGAGTCACCTAGTGCAG”, the binding signal rises from 8080 fluorescence intensity (a.u.) to 8650 fluorescence intensity (a.u.).

First: CTCCTCTAATTCATGTATTTTTCCTGTGGTCTAATCAAACCGGAGTCACCTAGTGCAG
Second: ATTTAAATTTTCAACCTTAAATTTAGAGTTGACTTTGGTTCGGAGTCACCTAGTGCAG
The binding signal of the first is lower: 9610 fluorescence intensity (a.u.) for the first, 10700 fluorescence intensity (a.u.) for the second.

First: TCCAGCAGCGTCCTCTCCCACAGCTGCACTCCCCATTCATCGGAGTCACCTAGTGCAG
Second: TGTAGGATCAGTCGCACCATTGATTTTCTCCTTGCTTTTACGGAGTCACCTAGTGCAG
The binding signal of the first is lower: 10100 fluorescence intensity (a.u.) for the first, 12700 fluorescence intensity (a.u.) for the second.

Compared with “CTTTTACTGACCTTGTTGAATTGAACGCAACAATTTTCTTCGGAGTCACCTAGTGCAG”, “ATGTTGTGCCTGGGGATGCCTAAATTCTGTGCTTGCTTAACGGAGTCACCTAGTGCAG” is higher in binding signal: 9920 fluorescence intensity (a.u.) for the first, 10400 fluorescence intensity (a.u.) for the second.

Going from “CATCCATCACATATTTTACAGTGTCGCTATTCTCAATTAACGGAGTCACCTAGTGCAG” to “TCATGGTATGTTAATGATGGGTTCATTTGTATATTCTATCCGGAGTCACCTAGTGCAG”, the binding signal rises from 9890 fluorescence intensity (a.u.) to 10200 fluorescence intensity (a.u.).

First: CCTCTCATTTTCATCTTCCCATTCTCAACTGCTCTCCTCTCGGAGTCACCTAGTGCAG
Second: CGGCGGCGGTGGTGGGGAGGAGGAGGGCCAGCGGCAGCAACGGAGTCACCTAGTGCAG
The binding signal of the first is lower: 9880 fluorescence intensity (a.u.) for the first, 17500 fluorescence intensity (a.u.) for the second.

Going from “CACACCACAGCTACTTACCTTGCCCGCCACACACTACACCCGGAGTCACCTAGTGCAG” to “ACAATCCATTTTATTCCAACAGATATATACACGGGGACAACGGAGTCACCTAGTGCAG”, the binding signal falls from 9790 fluorescence intensity (a.u.) to 8410 fluorescence intensity (a.u.).

First: ATCCCCACCCCACTACTAGAATTCTTTGCTTCTTGGTGCTCGGAGTCACCTAGTGCAG
Second: CATGTAGGGTCCATGTGGGTCTCACTTGCAACGTCAGTTACGGAGTCACCTAGTGCAG
The binding signal of the first is higher: 9620 fluorescence intensity (a.u.) for the first, 8400 fluorescence intensity (a.u.) for the second.

Compared with “CAAATGGTCAACAGATGTTGATAAAATCCACGCAAAATGTCGGAGTCACCTAGTGCAG”, “AGATTATCTCGCGACAACGTCAATTCAGTAACCACACCCTCGGAGTCACCTAGTGCAG” is lower in binding signal: 10900 fluorescence intensity (a.u.) for the first, 8310 fluorescence intensity (a.u.) for the second.

Going from “CATGCCACGCGAGATTACATTCTTATTTCCACCTCTCTTCCGGAGTCACCTAGTGCAG” to “TGTATTGCATCAACTGCCGCCACCGCTCGATATCCAGCTACGGAGTCACCTAGTGCAG”, the binding signal rises from 9040 fluorescence intensity (a.u.) to 14100 fluorescence intensity (a.u.).

First: TACACTTGTATTCCTATCAGAATCCTATATTTTTTCTATTCGGAGTCACCTAGTGCAG
Second: CTTTGCGCCGCCTCCGCCAACAGTCCTGCCACCGCTGCCGCGGAGTCACCTAGTGCAG
The binding signal of the first is higher: 8790 fluorescence intensity (a.u.) for the first, 8680 fluorescence intensity (a.u.) for the second.

Compared with “TTTGTTCTTGTTTGTTTTCTTCTCCTGACCAGTGTTTTCTCGGAGTCACCTAGTGCAG”, “GTTGTTTATATTTAACGTTTGATCGTTCGTCTTATTTAAACGGAGTCACCTAGTGCAG” is lower in binding signal: 12900 fluorescence intensity (a.u.) for the first, 12500 fluorescence intensity (a.u.) for the second.

Compared with “CAGCAGCCAGGAACCAGCCACACATTCCACAGCCGCGACGCGGAGTCACCTAGTGCAG”, “TGGAGAGCTGGTTATATAGGTGTTTGGAGAGTCCGTTTTACGGAGTCACCTAGTGCAG” is higher in binding signal: 8180 fluorescence intensity (a.u.) for the first, 8360 fluorescence intensity (a.u.) for the second.

First: CTTTTTCCCCGTGAGGACTATCACCGCGGCGCCGAATTGCCGGAGTCACCTAGTGCAG
Second: CCTATTCCCTTCGACTCCACACCACCACAACTACCGCGCGCGGAGTCACCTAGTGCAG
The binding signal of the first is lower: 8050 fluorescence intensity (a.u.) for the first, 12000 fluorescence intensity (a.u.) for the second.

Compared with “GGCCATTTGTACCATTGTTAGCCATCTATGCTTGCTGTGCCGGAGTCACCTAGTGCAG”, “ATCCACAGCTTTGCAATGCTCTAGTTTTTAATAACCTTTTCGGAGTCACCTAGTGCAG” is lower in binding signal: 9330 fluorescence intensity (a.u.) for the first, 8440 fluorescence intensity (a.u.) for the second.

Going from “CATTTGCATACTTGTTTGTTGTGACACTCGTTTTCTTTGCCGGAGTCACCTAGTGCAG” to “TTTTTTCTGATTTTGCATGGCGCTCTCGCGGGTGTTTTTTCGGAGTCACCTAGTGCAG”, the binding signal rises from 8990 fluorescence intensity (a.u.) to 11200 fluorescence intensity (a.u.).

Going from “TCTTCCCAACCAATCAAAACTCTCTACCATTCACTTTTCCCGGAGTCACCTAGTGCAG” to “CCGCCGCCGCTGCCGCTGCCCCTTCTCGCCGCCGGCTTCTCGGAGTCACCTAGTGCAG”, the binding signal falls from 9570 fluorescence intensity (a.u.) to 8860 fluorescence intensity (a.u.).

First: GGTTTAGGCTGTGTTTAGTTCTTTTTTTAATTTTTTTTAACGGAGTCACCTAGTGCAG
Second: CCATCGGTACCATCTGTTTCGTCTACTTCCTTTGTAATCTCGGAGTCACCTAGTGCAG
The binding signal of the first is higher: 16500 fluorescence intensity (a.u.) for the first, 9150 fluorescence intensity (a.u.) for the second.

Going from “TCATACCCTATTTTAAGGTTGAGGGCATGAGGGGTGTAAACGGAGTCACCTAGTGCAG” to “CGCGGCAGCCGTCACGCTTCGGTCACTCATCCACTCCCACCGGAGTCACCTAGTGCAG”, the binding signal falls from 9580 fluorescence intensity (a.u.) to 9220 fluorescence intensity (a.u.).

First: ACCCTCGTGCCGCCGCCGCCGCCGCCCCTCGTGCGGGCCCCGGAGTCACCTAGTGCAG
Second: CGGTGTTCCTCCTGGCTATATATACACGACGCGTTGCCGTCGGAGTCACCTAGTGCAG
The binding signal of the first is lower: 8460 fluorescence intensity (a.u.) for the first, 8970 fluorescence intensity (a.u.) for the second.

Compared with “ATAACGGCTGATATGTGGGCCCCACGTACTTTTCTTAATTCGGAGTCACCTAGTGCAG”, “CTGGATTAGTGTTTCTTGGCGGGATTTGGTGAGCGATTGACGGAGTCACCTAGTGCAG” is higher in binding signal: 8200 fluorescence intensity (a.u.) for the first, 8320 fluorescence intensity (a.u.) for the second.

Compared with “GGAAACAGTAACCGTCACCTCGCCTCGCCTCAAACCTCAACGGAGTCACCTAGTGCAG”, “CTCTCTCTCTCTCTCTCTCTCTCTCTCTCTCGTATTTTCCCGGAGTCACCTAGTGCAG” is lower in binding signal: 8790 fluorescence intensity (a.u.) for the first, 8750 fluorescence intensity (a.u.) for the second.
